# These are yes or no findings as the source states them, for the method shown. In cells and extracts the contact can be indirect. Some results given as binding are weak or reduced against the parent protein; the word gives no strength. Tags and fused reporters may be left off the sequences shown.
# Chains of the proteins cited; added tags and fusions are not shown.
# UniProt Q99497: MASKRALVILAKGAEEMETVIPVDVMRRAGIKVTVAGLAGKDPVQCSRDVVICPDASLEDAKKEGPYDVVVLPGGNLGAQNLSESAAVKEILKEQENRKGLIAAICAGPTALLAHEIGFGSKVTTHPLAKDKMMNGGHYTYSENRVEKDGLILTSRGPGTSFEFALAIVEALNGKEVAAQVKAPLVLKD
# T1: FK506-binding protein 3 (FKBP3), FKBP3-flag (UniProt Q00688)
# T1 sequence: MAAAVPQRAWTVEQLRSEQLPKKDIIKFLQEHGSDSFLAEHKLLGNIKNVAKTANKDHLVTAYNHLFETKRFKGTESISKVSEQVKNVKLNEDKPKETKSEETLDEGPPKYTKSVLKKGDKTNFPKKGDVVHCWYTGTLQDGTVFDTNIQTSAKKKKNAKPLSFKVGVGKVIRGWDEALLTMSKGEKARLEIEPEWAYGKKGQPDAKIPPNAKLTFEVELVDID
# B1: FK506-binding protein 3 (FKBP3), FKBP3-flag (protein, UniProt Q00688 1-224)
# chain: T1 sequence
# How the values were obtained:
# [1] = molecular target: T1, FK506-binding protein 3 (FKBP3), FKBP3-flag; experiment: co-IP; Flag tag or HA tag antibody coupled to AminoLink Plus Coupling Resin, incubated 2 h with RIPA lysate of DB cells transfected with oeFKBP3 and oePARK7; blots with HA or Flag tag antibody
# [2] = molecular target: parkinsonism associated deglycase (PARK7), PARK7-HA (UniProt Q99497); experiment: as above
Molecule,binding [1],binding [2]
"parkinsonism associated deglycase (PARK7), PARK7-HA (from UniProt Q99497 1-189)",binds,–
B1,–,binds

# Reference: article PMC10805489
